Values from PubChem BioAssay AID1259254 (NCATS, 2017).
Here is one part, drawn at random, of about 59,000 reagents. Of all reagents, about 1,550 (2.6%) were called active. 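G2 share is only a proxy for re-replication; each gene was hit by three separate siRNAs, and active genes were retested.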 Raw values are not corrected between plates. The numbers tell different reagents against one gene apart. Reagent sequences are not shown. The record does not give: the amount of reagent.

Test: 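Finding genes that stop cells copying their DNA twice in one cycle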 (primary screen)
Cell system: human HCT116 colorectal cancer cells
Knock-down reagent: single siRNA against human genes
Duration: 3 days
Measurement: 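Imaged Hoechst DNA stain sorts each cell into a cycle phase by DNA amount; per plate, G2 fraction set to 0% for non-targeting and 100% for GMNN siRNA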
Scale: G2 robust z-score and G2 cells, % of GMNN control: higher = more G2 cells, more excess DNA replication; raw share of cells in G2: higher = larger share of cells with G2 DNA content
Call rule: 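An siRNA counts as active if its G2 robust z-score lies at least 5 MADs above the screen median; here such calls match roughly 38% of GMNN control or more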

The opening 3 records as a preview:
| Target gene | reagent | G2 robust z-score | G2 cells, % of GMNN control | raw share of cells in G2 (%) | outcome |
| --- | --- | --- | --- | --- | --- |
| SCARA3 | 1 | -0.828 | -2.86 | 2.71 | inactive |
| SCARA3 | 2 | -0.0822 | 2.39 | 5.13 | inactive |
| SCARA3 | 3 | -1.08 | -4.65 | 3.84 | inactive |

Main list, from the first entry:
| Target gene | reagent | G2 robust z-score | G2 cells, % of GMNN control | raw share of cells in G2 (%) | outcome |
| --- | --- | --- | --- | --- | --- |
| SCARA3 | 1 | -0.828 | -2.86 | 2.71 | inactive |
| SCARA3 | 2 | -0.0822 | 2.39 | 5.13 | inactive |
| SCARA3 | 3 | -1.08 | -4.65 | 3.84 | inactive |
| LMLN | 1 | 0.891 | 9.23 | 9.5 | inactive |
| LMLN | 2 | -0.453 | -0.222 | 4.4 | inactive |
| LMLN | 3 | 4.66 | 35.8 | 17.6 | inactive |
| ZNF600 | 1 | 0.635 | 7.43 | 5.65 | inactive |
| ZNF600 | 2 | 0.36 | 5.5 | 5.07 | inactive |
| ZNF600 | 3 | 0.883 | 9.18 | 6.75 | inactive |
| OSBPL1A | 1 | -1.21 | -5.57 | 3.09 | inactive |
| OSBPL1A | 2 | 0.157 | 4.07 | 6.02 | inactive |
| OSBPL1A | 3 | 1.07 | 10.5 | 9.47 | inactive |
| ANAPC5 | 1 | 0.348 | 5.42 | 5.54 | inactive |
| ANAPC5 | 2 | 3.12 | 24.9 | 14.8 | inactive |
| ANAPC5 | 3 | 4.39 | 33.9 | 14.4 | inactive |
| PEX5 | 1 | -0.0477 | 2.63 | 5.02 | inactive |
| PEX5 | 2 | 2.79 | 22.6 | 13.3 | inactive |
| PEX5 | 3 | 2.46 | 20.3 | 11.9 | inactive |
| WASF1 | 1 | 1.14 | 11 | 9.99 | inactive |
| WASF1 | 2 | -0.478 | -0.398 | 3.74 | inactive |
| WASF1 | 3 | -0.186 | 1.66 | 3.93 | inactive |
| APOM | 1 | 0.606 | 7.23 | 7.2 | inactive |
| APOM | 2 | -0.0583 | 2.56 | 5.68 | inactive |
| APOM | 3 | -0.796 | -2.63 | 2.19 | inactive |
| MIR503HG | 1 | 0.796 | 8.57 | 5.64 | inactive |
| MIR503HG | 2 | 0.148 | 4.01 | 5.79 | inactive |
| MIR503HG | 3 | 1.64 | 14.5 | 7.54 | inactive |
| NUDT14 | 1 | -0.591 | -1.19 | 3.95 | inactive |
| NUDT14 | 2 | 0.211 | 4.46 | 4.84 | inactive |
| NUDT14 | 3 | 1.23 | 11.6 | 8.57 | inactive |
